From US20240398942A1, “USE OF ANTI-CD40 ANTIBODY” (CHIA TAI TIANQING PHARMACEUTICAL GROUP CO., LTD., priority 2021, published 2024)
Results are given in words; binding and its absence hold for the method and conditions named. Some entries that bind do so weakly or less than the wild type.

By UniProt entry, the sequences of proteins in these tests, tags left out. Where a name states a change or a piece, a line headed by the entry shows the natural chain unless it says otherwise. Chains listed by the source or under a name are the forms on record and can include a tag or linker.
cynomolgus monkey CD40-his protein (Acro biosystems, Cat. No. CD0-C52H6) (G7PG38, form named): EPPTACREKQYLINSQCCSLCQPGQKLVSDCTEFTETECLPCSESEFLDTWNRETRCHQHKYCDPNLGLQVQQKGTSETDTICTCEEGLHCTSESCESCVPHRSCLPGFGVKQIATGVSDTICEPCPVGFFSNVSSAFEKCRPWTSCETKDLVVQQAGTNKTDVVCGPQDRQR

B1: humanized antibody huC1H1-V1 (antibody, human IgG2, kappa, V domains shown)
VH: EVQLVESGGGLVKPGGSLRLSCAASGFTFSNYGISWVRQAPGKGLEWVASISSGGDNTYYPDNVKGRFTISRDNAKNSLYLQMNSLRAEDTAVYYCARAGEKAMDYWGQGTLVTVSS
VL: EIVLTQSPATLSLSPGERATLSCRASQTINNNLHWYQQKPGQAPRLLIKYASQSISGIPARFSGSGSGTDFTLTISSLEPEDFAVYFCQQFSSWPLTFGGGTKVEIKR
B2: humanized antibody huC1H1-V2 (antibody, human IgG2, kappa, V domains shown)
VH: EVQLVESGGGLVKPGGSLRLSCAASGFTFSNYGISWVRQAPGKGLEWVSSISSGGDNTYYPDNVKGRFTISRDNAKNSLYLQMNSLRAEDTAVYYCARAGEKAMDYWGQGTLVTVSS
VL: EIVLTQSPATLSLSPGERATLSCRASQTINNNLHWYQQKPGQAPRLLIKYASQSISGIPARFSGSGSGTDFTLTISSLEPEDFAVYFCQQFSSWPLTFGGGTKVEIKR
B3: chimeric antibody C1H1 (antibody, human IgG1, kappa, V domains shown)
VH: EVKLVESGGGLVKPGASLKLSCAASGFTFSNYGISWVRQTSDKRLEWVASISSGGDNTYYPDNVKGRFTISRENAKNTLYLQMSSLKSEDTALYYCARAGEKAMDYWGQGTSVTVSS
VL: DIVLTQSPVTLSVTPGDSVSLSCRASQTINNNLHWYQQKSHESPRLLIKYASQSISGIPSRFSGSGSGTDFTLSINSVETEDFGIYFCQQFSSWPLTFGAGTKLELKR
B4: BM1 (dacetuzumab) (antibody, human IgG1, kappa, V domains shown)
VH: EVQLVESGGGLVQPGGSLRLSCAASGYSFTGYYIHWVRQAPGKGLEWVARVIPNAGGTSYNQKFKGRFTLSVDNSKNTAYLQMNSLRAEDTAVYYCAREGIYWWGQGTLVTVSS
VL: DIQMTQSPSSLSASVGDRVTITCRSSQSLVHSNGNTFLHWYQQKPGKAPKLLIYTVSNRFSGVPSRFSGSGSGTDFTLTISSLQPEDFATYFCSQTTHVPWTFGQGTKVEIKR

target: cynomolgus monkey CD40-his protein (Acro biosystems, Cat. No. CD0-C52H6) (cynomolgus monkey) (UniProt G7PG38); experiment: SPR (Biacore)

binding, binds:
B1
B2
B3
B4
